Test results as given in patent US20130164256A1.
No constants are given. Whether binding was seen depends on the method and setting. Some results given as binding are weak or reduced against the parent protein; the word gives no strength.

By UniProt entry, the sequences of proteins in these tests, tags left out. Where a name states a change or a piece, a line headed by the entry shows the natural chain unless it says otherwise.
UniProt P01375: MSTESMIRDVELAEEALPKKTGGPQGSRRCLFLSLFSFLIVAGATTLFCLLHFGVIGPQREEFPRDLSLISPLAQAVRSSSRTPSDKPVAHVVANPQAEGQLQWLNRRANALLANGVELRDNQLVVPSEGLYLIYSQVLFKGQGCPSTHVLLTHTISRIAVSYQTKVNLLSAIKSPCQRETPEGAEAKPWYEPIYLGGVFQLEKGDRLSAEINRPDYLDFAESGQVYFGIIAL

B1: AE11-1 (antibody, V domains shown)
VH: EVQLVQSGAEVKKPGASVKVSCKASGYTFTSYDVNWVRQATGQGLEWMGWMNPNSGNTGYAQKFQGRVTITADESTSTAYMELSSLRSEDTAVYYCAIFDSDYMDVWGKGTLVTVSS
VL: SYELTQPPSVSLSPGQTARITCSGDALPKQYAYWYQQKPGQAPVLVIYKDTERPSGIPERFSGSSSGTTVTLTISGAQAEDEADYYCQSADSSGTSWVFGGGTKLTVL
B2: AE11-5 (antibody, V domains shown)
VH: EVQLVQSGAEVKKPGSSAKVSCKASGGTFSSYAISWVRQAPGQGLEWMGGIIPILGTANYAQKFLGRVTITADESTSTVYMELSSLRSEDTAVYYCARGLYYDPTRADYWGQGTLVTVSS
VL: DIVMTQSPDFHSVTPKEKVTITCRASQSIGSSLHWYQQKPDQSPKLLIRHASQSISGVPSRFSGSGSGTDFTLTIHSLEAEDAATYYCHQSSSSPPPTFGQGTQVEIK
B3: TNF-JK1 (antibody, V domains shown)
VH: EVQLVESGGGLVQPGGSLRLSCATSGFTFNNYWMSWVRQAPGKGLEWVANINHDESEKYYVDSAKGRFTISRDNAEKSLFLQMNSLRAEDTAVYYCARIIRGRVGFDYYNYAMDVWGQGTLVTVSS
VL: DIRLTQSPSPLSASVGDRVTITCRASQSIGNYLNWYQHKPGKAPKLLIYAASSLQSGVPSRFSGTGSGTDFTLTISSLQPEDFATYYCQESYSLIFAGGTKVEIK
B4: AE11-7 (antibody, V domains shown)
VH: EVQLVQSGAEVKKPGASVKVSCKTSGYSLTQYPIHWVRQAPGQRPEWMGWISPGNGNTKLSPKFQGRVTLSRDASAGTVFMDLSGLTSDDTAVYFCTSVDLGDHWGQGTLVTVSS
VL: DIVMTQSPEFQSVTPKEKVTITCRASQSIGSSLHWYQQKPDQSPKLLINYASQSFSGVPSRFSGGGSGTDFTLTINSLEAEDAATYYCHQSSNLPITFGQGTRLEIK

What follows are binders tested against human TNF-α (human) (UniProt P01375) (assay: in vitro display selection on recombinant human TNF).
For B1, the binding was “binds”. B2 was tested, and the binding was “binds”. With B3 the binding was “binds”. B4 was tested, and the binding was “binds”.
